# The list shows a part of the results. Many values rest on one well or one pass, so single values are uncertain.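 Imaging used 1,536-well plates; nuclei positive for cleaved PARP by antibody were divided by total DNA-stained nuclei to yield the apoptosis fraction. Doses for screening kept most cells viable, and cell lines differ markedly in resting and induced cleaved-PARP levels.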
# System: SkMel2
# Experiment: cleaved PARP positive nuclei fraction relative to DMSO control; melanoma cells; higher = more apoptosis
# Settings: library dose: low library concentration; 72 h
row,SMILES,cleaved PARP positive nuclei fraction [%]
1,"NC1(c2ccc(-c3nc4ccn5c(=O)[nH]nc5c4cc3-c3ccccc3)cc2)CCC1 + Cc1nc(Nc2ncc(C(=O)Nc3c(C)cccc3Cl)s2)cc(N2CCN(CCO)CC2)n1 [dasatanib] (first compound 0.4 µM, partner dose 0.004 µM)",77.8
2,"C[C@@H](N)c1ccc(C(=O)Nc2ccnc3[nH]ccc23)cc1 + CC(C)(C)c1cnc(CSc2cnc(NC(=O)C3CCNCC3)s2)o1 [SNS-032] (first compound 0.4 µM, partner dose 0.01 µM)",139
3,"NC(=O)c1ccc(N(C(N)=O)c2c(F)cccc2F)nc1-c1ccc(F)cc1F + CN1CCN(c2ccc3nc(-c4c(N)c5c(F)cccc5[nH]c4=O)[nH]c3c2)CC1 [Dovitinib] (first compound 0.4 µM, partner dose 0.1 µM)",106
4,"NC(=O)c1ccc(N(C(N)=O)c2c(F)cccc2F)nc1-c1ccc(F)cc1F + C[C@]1(O)C[C@@H](c2nc(-c3ccc4ccc(-c5ccccc5)nc4c3)c3c(N)nccn32)C1 [OSI906] (first compound 0.4 µM, partner dose 0.4 µM)",118
5,"Cn1cnc2c(F)c(Nc3ccc(Br)cc3Cl)c(C(=O)NOCCO)cc21 [selumetinib] + Cn1nnc2c(C(N)=O)ncn2c1=O [temozolomide] (first compound 0.015 µM, partner dose 2 µM)",79.3
6,"C[C@]1(O)C[C@@H](c2nc(-c3ccc4ccc(-c5ccccc5)nc4c3)c3c(N)nccn32)C1 + Clc1ccc(Nc2nnc(Cc3ccncc3)c3ccccc23)cc1 [vatalanib] (first compound 0.4 µM, partner dose 2 µM)",164
7,"CC1(C)CCC(c2ccc(Cl)cc2)=C(CN2CCN(c3ccc(C(=O)NS(=O)(=O)c4ccc(N[C@H](CCN5CCOCC5)CSc5ccccc5)c(S(=O)(=O)C(F)(F)F)c4)cc3)CC2)C1 + Cc1cc(N2CCOCC2)cc2[nH]c(-c3c(NC[C@@H](O)c4cccc(Cl)c4)cc[nH]c3=O)nc12 [BMS536924] (first compound 0.4 µM, partner dose 0.2 µM)",292
8,"CC(=O)O[C@@]12CO[C@@H]1C[C@H](O)[C@@]1(C)C(=O)[C@H](O)C3=C(C)[C@@H](OC(=O)[C@H](O)[C@@H](NC(=O)OC(C)(C)C)c4ccccc4)C[C@@](O)([C@@H](OC(=O)c4ccccc4)[C@H]21)C3(C)C [Docetaxel] + COCC[n+]1c2c(n(Cc3cnccn3)c1C)C(=O)c1ccccc1C2=O [YM155] (first compound 0.0001 µM, partner dose 0.0004 µM)",1260
9,"NC1(c2ccc(-c3nc4ccn5c(=O)[nH]nc5c4cc3-c3ccccc3)cc2)CCC1 + CC(=O)c1c(C)c2cnc(Nc3ccc(N4CCNCC4)cn3)nc2n(C2CCCC2)c1=O [palbociclib] (first compound 0.4 µM, partner dose 0.04 µM)",26.9
10,"Cn1sc(=O)n(Cc2ccccc2)c1=O + Cc1cc([N+](=O)[O-])ccc1NS(=O)(=O)c1cc(Cl)ccc1Cl [FH535] (first compound 0.4 µM, partner dose 1 µM)",78.3
11,"CN(c1ncccc1CNc1nc(Nc2ccc3c(c2)CC(=O)N3)ncc1C(F)(F)F)S(C)(=O)=O + Nc1cccc2c1CN(C1CCC(=O)NC1=O)C2=O [lenalidomide] (first compound 0.08 µM, partner dose 1 µM)",45.7
12,"NC(=O)c1ccc(N(C(N)=O)c2c(F)cccc2F)nc1-c1ccc(F)cc1F + C[C@]1(c2nc3c(C(N)=O)cccc3[nH]2)CCCN1 [Veliparib] (first compound 0.4 µM, partner dose 1.4 µM)",110
13,"CCCCCCCCc1ccc(CCC(N)(CO)CO)cc1 [fingolimod] + O=C(O)c1ccc2c(c1)nc(Nc1cccc(Cl)c1)c1ccncc12 [CX4945] (first compound 2 µM, partner dose 0.4 µM)",54
14,"C[C@@H](N)c1ccc(C(=O)Nc2ccnc3[nH]ccc23)cc1 + Cc1cc(N2CCOCC2)cc2[nH]c(-c3c(NC[C@@H](O)c4cccc(Cl)c4)cc[nH]c3=O)nc12 [BMS536924] (first compound 0.4 µM, partner dose 0.2 µM)",192
15,"CCCCCCCCc1ccc(CCC(N)(CO)CO)cc1 [fingolimod] + C=CCn1c(=O)c2cnc(Nc3ccc(N4CCN(C)CC4)cc3)nc2n1-c1cccc(C(C)(C)O)n1 [MK1775] (first compound 2 µM, partner dose 0.02 µM)",71.4
16,"CN(c1ncccc1CNc1nc(Nc2ccc3c(c2)CC(=O)N3)ncc1C(F)(F)F)S(C)(=O)=O + Nc1nc(F)nc2c1ncn2[C@@H]1O[C@H](CO)[C@@H](O)[C@@H]1O [fludarabine] (first compound 0.08 µM, partner dose 0.2 µM)",1070
17,"C[C@@H](N)c1ccc(C(=O)Nc2ccnc3[nH]ccc23)cc1 + CS(=O)(=O)CCNCc1ccc(-c2ccc3ncnc(Nc4ccc(OCc5cccc(F)c5)c(Cl)c4)c3c2)o1 [lapatinib] (first compound 0.4 µM, partner dose 0.8 µM)",119
18,"NC(=O)c1ccc(N(C(N)=O)c2c(F)cccc2F)nc1-c1ccc(F)cc1F + CS(=O)(=O)CCNCc1ccc(-c2ccc3ncnc(Nc4ccc(OCc5cccc(F)c5)c(Cl)c4)c3c2)o1 [lapatinib] (first compound 0.4 µM, partner dose 0.8 µM)",94.4
19,"CS(=O)(=O)c1ccc(C(=O)Nc2ccc(Cl)c(-c3ccccn3)c2)c(Cl)c1 [vismodegib] + O=C(O)c1ccc2c(c1)nc(Nc1cccc(Cl)c1)c1ccncc12 [CX4945] (first compound 1 µM, partner dose 0.4 µM)",116
20,"CC(=O)O[C@@]12CO[C@@H]1C[C@H](O)[C@@]1(C)C(=O)[C@H](O)C3=C(C)[C@@H](OC(=O)[C@H](O)[C@@H](NC(=O)OC(C)(C)C)c4ccccc4)C[C@@](O)([C@@H](OC(=O)c4ccccc4)[C@H]21)C3(C)C [Docetaxel] + CCc1ccc(CCOc2ccc(CC3SC(=O)NC3=O)cc2)nc1 [pioglitazone] (first compound 0.0001 µM, partner dose 2 µM)",618
21,"Cn1cnc2c(F)c(Nc3ccc(Br)cc3Cl)c(C(=O)NOCCO)cc21 [selumetinib] + Cn1c(Nc2ccc(C(F)(F)F)cc2)nc2cc(Oc3ccnc(-c4ncc(C(F)(F)F)[nH]4)c3)ccc21 [CHIR265] (first compound 0.015 µM, partner dose 0.08 µM)",450
22,"NC1(c2ccc(-c3nc4ccn5c(=O)[nH]nc5c4cc3-c3ccccc3)cc2)CCC1 + c1cc(-c2cnn3cc(-c4ccc(OCCN5CCCCC5)cc4)cnc23)ccn1 [Dorsomorphin] (first compound 0.4 µM, partner dose 0.4 µM)",64.2
23,"CC(=O)O[C@@]12CO[C@@H]1C[C@H](O)[C@@]1(C)C(=O)[C@H](O)C3=C(C)[C@@H](OC(=O)[C@H](O)[C@@H](NC(=O)OC(C)(C)C)c4ccccc4)C[C@@](O)([C@@H](OC(=O)c4ccccc4)[C@H]21)C3(C)C [Docetaxel] + CC(=O)c1c(C)c2cnc(Nc3ccc(N4CCNCC4)cn3)nc2n(C2CCCC2)c1=O [palbociclib] (first compound 0.0001 µM, partner dose 0.04 µM)",311
24,"COc1ccc(C2=N[C@@H](c3ccc(Cl)cc3)[C@@H](c3ccc(Cl)cc3)N2C(=O)N2CCNC(=O)C2)c(OC(C)C)c1 [Nutlin-3] + Nc1nc(F)nc2c1ncn2[C@@H]1O[C@H](CO)[C@@H](O)[C@@H]1O [fludarabine] (first compound 0.1 µM, partner dose 0.2 µM)",370
25,"CCN(CC)CCNC(=O)c1c(C)[nH]c(/C=C2\C(=O)Nc3ccc(F)cc32)c1C [sunitinib] + C=C(c1ccc(C(=O)O)cc1)c1cc2c(cc1C)C(C)(C)CCC2(C)C [Bexarotene] (first compound 0.4 µM, partner dose 2 µM)",68.3
26,"NC(=O)c1ccc(N(C(N)=O)c2c(F)cccc2F)nc1-c1ccc(F)cc1F + Cn1nnc2c(C(N)=O)ncn2c1=O [temozolomide] (first compound 0.4 µM, partner dose 2 µM)",93.7
27,"CC1(C)CCC(c2ccc(Cl)cc2)=C(CN2CCN(c3ccc(C(=O)NS(=O)(=O)c4ccc(N[C@H](CCN5CCOCC5)CSc5ccccc5)c(S(=O)(=O)C(F)(F)F)c4)cc3)CC2)C1 + CN(c1ncccc1CNc1nc(Nc2ccc3c(c2)CC(=O)N3)ncc1C(F)(F)F)S(C)(=O)=O [PF562271] (first compound 0.4 µM, partner dose 0.08 µM)",103
28,"Cn1sc(=O)n(Cc2ccccc2)c1=O + CC(C)C[C@H](NC(=O)[C@H](Cc1ccccc1)NC(=O)c1cnccn1)B(O)O [Bortezomib] (first compound 0.4 µM, partner dose 0.001 µM)",67.3
29,"C[C@]1(O)C[C@@H](c2nc(-c3ccc4ccc(-c5ccccc5)nc4c3)c3c(N)nccn32)C1 + C=CCn1c(=O)c2cnc(Nc3ccc(N4CCN(C)CC4)cc3)nc2n1-c1cccc(C(C)(C)O)n1 [MK1775] (first compound 0.4 µM, partner dose 0.02 µM)",55.7
30,"CS(=O)(=O)c1ccc(C(=O)Nc2ccc(Cl)c(-c3ccccn3)c2)c(Cl)c1 [vismodegib] + C[C@@H](Oc1cc(-c2cnn(C3CCNCC3)c2)cnc1N)c1c(Cl)ccc(F)c1Cl [Crizotinib] (first compound 1 µM, partner dose 0.2 µM)",108

# Two records drawn at random from those above:
row,SMILES,cleaved PARP positive nuclei fraction [%]
12,"NC(=O)c1ccc(N(C(N)=O)c2c(F)cccc2F)nc1-c1ccc(F)cc1F + C[C@]1(c2nc3c(C(N)=O)cccc3[nH]2)CCCN1 [Veliparib] (first compound 0.4 µM, partner dose 1.4 µM)",110
16,"CN(c1ncccc1CNc1nc(Nc2ccc3c(c2)CC(=O)N3)ncc1C(F)(F)F)S(C)(=O)=O + Nc1nc(F)nc2c1ncn2[C@@H]1O[C@H](CO)[C@@H](O)[C@@H]1O [fludarabine] (first compound 0.08 µM, partner dose 0.2 µM)",1070
